Laboratory results as given in article PMC3834835, “Crystal structure of RuvC resolvase in complex with Holliday junction substrate” (Nucleic Acids Research, 2013).
Results are given in words; binding and its absence hold for the method and conditions named. Some results given as binding are weak or reduced against the parent protein; the word gives no strength.

Molecular target: RuvC protein from T. thermophilus (Tt-RuvC), unliganded (apo) crystal form (T. thermophilus) (UniProt Q5SJC4)
Assay: crystal structure; apo Tt-RuvC, crystals from 0.1 M citric acid (pH 3.5) and 1.5 M NaCl; SAD, 1.35 Å; asymmetric unit holds a RuvC dimer; both purified

B1: RuvC protein from T. thermophilus (Tt-RuvC), unliganded (apo) crystal form (enzyme)
chain: MVVAGIDPGITHLGLGVVAVEGKGALKARLLHGEVVKTSPQEPAKERVGRIHARVLEVLHRFRPEAVAVEEQFFYRQNELAYKVGWALGAVLVAAFEAGVPVYAYGPMQVKQALAGHGHAAKEEVALMVRGILGLKEAPRPSHLADALAIALTHAFYARMGTAKPL
modifications: selenomethionine-substituted protein (SAD data)
notes: RuvC Holliday junction resolvase, Thermus thermophilus; No PDB id is printed for the apo structure; also called apo Tt-RuvC; RuvC resolvase; source: E. coli, purified (nickel column, tag cleavage, Mono-S column)
- binding: binds
